Assay results published in patent publication US20070020269A1 (published 2007).
No constants are given. Whether binding was seen depends on the method and setting. Tags and fused reporters may be left off the sequences shown.

Assays:
Experiment in all cases: yeast two-hybrid
cyclin B = target: cyclin B
cyclin G = target: cyclin G
cyclin A = target: cyclin A

binding (cyclin B): no binding | binding (cyclin G): no binding | binding (cyclin A): no binding
B1: RX50 bait (RX50 gene in modified fusion plasmid pGBKT7, Gal4 yeast two-hybrid system) (enzyme, not shown: large carriers)
chain: MHGYFGCNAAAEPGYSAFVGTPQICVTKFSTRNCQGMDSVIKPLDTIPEDKKVRVQRTQSTFDPFEKPANQVKRVHSENNACINFKTSSTGKESPKVRRHSSPSSPTSPKFGKADSYEKLEKLGEGSYAYVYKGKSKVNGKLVALKVIRLQEEEGTPFTAIREASIIKGLKHANIVLLHDIIHTKETLTLVFEYYHTDLCQYMDKHPGGLHPDNVKLFLFQLLRGLSYIHQRYILHRDLKPGNLLISDTGELKLADFGLAKAKSVPSHTTSNEVVYLWYRPPDVLLGSTEYSTCLDMWGVGCIFVEMIQGVAAFPGMKDIQDQLERIFLVLGTPNEDTWPGVHSLPHFKPERFTLYSSKNLRQAWNKLSYVNHAEDLASKLLQCSPKNRLSAQAALSHEYFSDLPPRLWELTDMSSIFTVPNVRLQPEAGESMRAFGKNNSYGKSLSNSKH
